According to the supplement of paper PMC8728848:
This is one part of the list.

Tests used:
Test in all cases: glycan array binding signal (z-score within array); higher = stronger binding
Conditions in all cases: glycan notation: IUPAC condensed, linker removed
[1] = target: GlcNAc(b1-4)GlcNAc(b1-4)GlcNAc(b1-4)GlcNAc(b1-4)GlcNAc
How it was run: (§1)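 The binding signal is a Z-score computed within each array. Data were drawn from 3228 arrays in the Consortium for Functional Glycomics database, restricted to those with a known protein sequence. Scores were averaged over arrays of the same protein sequence at different concentrations or buffers, and over linkers, and negative values can be taken as non-binding.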

[2] = target: GlcNAc(b1-4)GlcNAc(b1-4)GlcNAc(b1-4)GlcNAc(b1-4)GlcNAc(b1-4)GlcNAc
How it was run: as §1

[3] = target: GlcNAc(b1-4)[GlcNAc(b1-6)]GalNAc
How it was run: as §1

[4] = target: GlcNAc(b1-6)Gal(b1-4)GlcNAc
How it was run: as §1

[5] = target: GlcNAc(b1-6)GalNAc
How it was run: as §1

[6] = target: GlcNAc6S(b1-3)Gal(b1-4)GlcNAc
How it was run: as §1

[7] = target: Kdn(a2-3)Gal(b1-3)GalNAc
How it was run: as §1

[8] = target: Kdn(a2-3)Gal(b1-3)GlcNAc
How it was run: as §1

[9] = target: Kdn(a2-3)Gal(b1-4)Glc
How it was run: as §1

[10] = target: Kdn(a2-3)Gal(b1-4)GlcNAc
How it was run: as §1

[11] = target: Kdn(a2-3)Gal(b1-4)[Fuc(a1-3)]GlcNAc
How it was run: as §1

[12] = target: Kdn(a2-6)Gal(b1-4)GlcNAc
How it was run: as §1

[13] = target: Man(a1-2)Man(a1-2)Man(a1-3)Man
How it was run: as §1

[14] = target: Man(a1-2)Man(a1-2)Man(a1-6)[Man(a1-3)]Man
How it was run: as §1

[15] = target: Man(a1-2)Man(a1-3)Man
How it was run: as §1

[16] = target: Man(a1-2)Man(a1-3)[Man(a1-2)Man(a1-6)]Man
How it was run: as §1

[17] = target: Man(a1-2)Man(a1-3)[Man(a1-2)Man(a1-6)]Man(a1-6)[Man(a1-2)Man(a1-2)Man(a1-3)]Man
How it was run: as §1

[18] = target: Man(a1-2)Man(a1-3)[Man(a1-2)Man(a1-6)]Man(a1-6)[Man(a1-2)Man(a1-2)Man(a1-3)]Man(b1-4)GlcNAc(b1-4)GlcNAc
How it was run: as §1

[19] = target: Man(a1-2)Man(a1-3)[Man(a1-6)]Man(a1-6)[Man(a1-2)Man(a1-3)]Man(b1-4)GlcNAc(b1-4)GlcNAc
How it was run: as §1

[20] = target: Man(a1-2)Man(a1-6)[Man(a1-3)]Man(a1-6)[Man(a1-2)Man(a1-2)Man(a1-3)]Man
How it was run: as §1

[21] = target: Man(a1-2)Man(a1-6)[Man(a1-3)]Man(a1-6)[Man(a1-2)Man(a1-2)Man(a1-3)]Man(b1-4)GlcNAc(b1-4)GlcNAc
How it was run: as §1

[22] = target: Man(a1-3)[Man(a1-6)]Man
How it was run: as §1

[23] = target: Man(a1-3)[Man(a1-6)]Man(a1-6)[Man(a1-2)Man(a1-3)]Man(b1-4)GlcNAc(b1-4)GlcNAc
How it was run: as §1

[24] = target: Man(a1-3)[Man(a1-6)]Man(a1-6)[Man(a1-3)]Man
How it was run: as §1

[25] = target: Man(a1-3)[Man(a1-6)]Man(a1-6)[Man(a1-3)]Man(b1-4)GlcNAc(b1-4)GlcNAc
How it was run: as §1

[26] = target: Man(a1-3)[Man(a1-6)]Man(b1-4)GlcNAc(b1-4)GlcNAc
How it was run: as §1

[27] = target: Man(a1-3)[Man(a1-6)]Man(b1-4)GlcNAc(b1-4)[Fuc(a1-6)]GlcNAc
How it was run: as §1

[28] = target: Man(a1-6)Man
How it was run: as §1

[29] = target: Man(b1-4)GlcNAc
How it was run: as §1

[30] = target: MurNAc(b1-4)GlcNAc
How it was run: as §1

[31] = target: Neu5Ac(a2-3)Gal
How it was run: as §1

[32] = target: Neu5Ac(a2-3)Gal(b1-3)GalNAc
How it was run: as §1

[33] = target: Neu5Ac(a2-3)Gal(b1-3)GalNAc(b1-3)Gal(a1-4)Gal(b1-4)Glc
How it was run: as §1

[34] = target: Neu5Ac(a2-3)Gal(b1-3)GalNAc(b1-4)Gal(b1-4)Glc
How it was run: as §1

[35] = target: Neu5Ac(a2-3)Gal(b1-3)GalNAc(b1-4)[Neu5Ac(a2-3)]Gal(b1-4)Glc
How it was run: as §1

[36] = target: Neu5Ac(a2-3)Gal(b1-3)GalNAc(b1-4)[Neu5Ac(a2-8)Neu5Ac(a2-3)]Gal(b1-4)Glc
How it was run: as §1

[37] = target: Neu5Ac(a2-3)Gal(b1-3)GalNAc6S
How it was run: as §1

[38] = target: Neu5Ac(a2-3)Gal(b1-3)GlcNAc
How it was run: as §1

[39] = target: Neu5Ac(a2-3)Gal(b1-3)GlcNAc(b1-2)Man
How it was run: as §1

[40] = target: Neu5Ac(a2-3)Gal(b1-3)GlcNAc(b1-2)Man(a1-3)[GlcNAc(b1-4)][Neu5Ac(a2-3)Gal(b1-3)GlcNAc(b1-2)Man(a1-6)]Man(b1-4)GlcNAc(b1-4)GlcNAc
How it was run: as §1

[41] = target: Neu5Ac(a2-3)Gal(b1-3)GlcNAc(b1-2)Man(a1-3)[Neu5Ac(a2-3)Gal(b1-3)GlcNAc(b1-2)Man(a1-6)]Man(b1-4)GlcNAc(b1-4)GlcNAc
How it was run: as §1

[42] = target: Neu5Ac(a2-3)Gal(b1-3)GlcNAc(b1-2)[Neu5Ac(a2-3)Gal(b1-3)GlcNAc(b1-4)]Man(a1-6)[Neu5Ac(a2-3)Gal(b1-3)GlcNAc(b1-2)Man(a1-3)]Man(b1-4)GlcNAc(b1-4)GlcNAc
How it was run: as §1

[43] = target: Neu5Ac(a2-3)Gal(b1-3)GlcNAc(b1-3)Gal(b1-3)GlcNAc
How it was run: as §1

[44] = target: Neu5Ac(a2-3)Gal(b1-3)GlcNAc(b1-3)Gal(b1-4)GlcNAc
How it was run: as §1

[45] = target: Neu5Ac(a2-3)Gal(b1-3)GlcNAc(b1-3)GalNAc
How it was run: as §1

B1: OS9-MRH (Homo sapiens), Q13438 (protein)
chain: IPELLSPMRDAPCLLKTKDWWTYEFCYGRHIQQYHMEDSEIKGEVLYLGYYQSAFDWDDETAKASKQHRLKRYHSQTYGNGSKCDLNGRPREAEVRFLCDEGAGISGDYIDRVDEPLSCSYVLTIRTPRLCPHPLLRPPPSAAPQAI
glycan array binding signal (z-score) [1]: 0.569 | glycan array binding signal (z-score) [2]: -0.3 | glycan array binding signal (z-score) [3]: 0.693 | glycan array binding signal (z-score) [4]: -0.726 | glycan array binding signal (z-score) [5]: -0.209 | glycan array binding signal (z-score) [6]: -0.286 | glycan array binding signal (z-score) [7]: -0.709 | glycan array binding signal (z-score) [8]: -0.687 | glycan array binding signal (z-score) [9]: 0.824 | glycan array binding signal (z-score) [10]: 1.29 | glycan array binding signal (z-score) [11]: 1.04 | glycan array binding signal (z-score) [12]: -0.411 | glycan array binding signal (z-score) [13]: 0.886 | glycan array binding signal (z-score) [14]: -0.565 | glycan array binding signal (z-score) [15]: -0.606 | glycan array binding signal (z-score) [16]: -0.512 | glycan array binding signal (z-score) [17]: -0.853 | glycan array binding signal (z-score) [18]: -0.637 | glycan array binding signal (z-score) [19]: -1.58 | glycan array binding signal (z-score) [20]: -0.992 | glycan array binding signal (z-score) [21]: 0.421 | glycan array binding signal (z-score) [22]: 1.42 | glycan array binding signal (z-score) [23]: -0.387 | glycan array binding signal (z-score) [24]: 0.835 | glycan array binding signal (z-score) [25]: 0.612 | glycan array binding signal (z-score) [26]: -0.235 | glycan array binding signal (z-score) [27]: 0.549 | glycan array binding signal (z-score) [28]: -0.075 | glycan array binding signal (z-score) [29]: -0.365 | glycan array binding signal (z-score) [30]: 0.08 | glycan array binding signal (z-score) [31]: -0.905 | glycan array binding signal (z-score) [32]: 0.336 | glycan array binding signal (z-score) [33]: 0.348 | glycan array binding signal (z-score) [34]: 0.484 | glycan array binding signal (z-score) [35]: -0.741 | glycan array binding signal (z-score) [36]: -0.974 | glycan array binding signal (z-score) [37]: 0.458 | glycan array binding signal (z-score) [38]: 0.365 | glycan array binding signal (z-score) [39]: 0.732 | glycan array binding signal (z-score) [40]: -1.14 | glycan array binding signal (z-score) [41]: -0.126 | glycan array binding signal (z-score) [42]: -0.384 | glycan array binding signal (z-score) [43]: -0.627 | glycan array binding signal (z-score) [44]: 0.383 | glycan array binding signal (z-score) [45]: -0.634
